Test results from the supplement of paper PMC10849652.
Some of the results follow.

Sequences of proteins named here, by UniProt entry; tags and fusion partners are left off. A change or cut given only in a name is not applied to a line headed by its entry.
UniProt Q12904: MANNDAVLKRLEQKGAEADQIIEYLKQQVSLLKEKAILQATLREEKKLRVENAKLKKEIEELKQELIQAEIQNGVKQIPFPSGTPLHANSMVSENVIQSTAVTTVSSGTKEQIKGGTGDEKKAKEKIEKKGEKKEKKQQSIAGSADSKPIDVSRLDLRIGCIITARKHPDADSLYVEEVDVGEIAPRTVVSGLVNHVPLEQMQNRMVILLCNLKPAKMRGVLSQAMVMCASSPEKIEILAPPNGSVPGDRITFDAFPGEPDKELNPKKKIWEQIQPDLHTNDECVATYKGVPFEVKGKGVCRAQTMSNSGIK
UniProt Q9Y3D8, whole entry, looked up: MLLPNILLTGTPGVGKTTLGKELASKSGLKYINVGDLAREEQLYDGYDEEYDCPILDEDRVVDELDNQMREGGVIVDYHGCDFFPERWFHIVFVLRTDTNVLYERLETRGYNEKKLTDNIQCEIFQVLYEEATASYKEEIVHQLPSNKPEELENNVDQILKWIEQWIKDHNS
UniProt P35611: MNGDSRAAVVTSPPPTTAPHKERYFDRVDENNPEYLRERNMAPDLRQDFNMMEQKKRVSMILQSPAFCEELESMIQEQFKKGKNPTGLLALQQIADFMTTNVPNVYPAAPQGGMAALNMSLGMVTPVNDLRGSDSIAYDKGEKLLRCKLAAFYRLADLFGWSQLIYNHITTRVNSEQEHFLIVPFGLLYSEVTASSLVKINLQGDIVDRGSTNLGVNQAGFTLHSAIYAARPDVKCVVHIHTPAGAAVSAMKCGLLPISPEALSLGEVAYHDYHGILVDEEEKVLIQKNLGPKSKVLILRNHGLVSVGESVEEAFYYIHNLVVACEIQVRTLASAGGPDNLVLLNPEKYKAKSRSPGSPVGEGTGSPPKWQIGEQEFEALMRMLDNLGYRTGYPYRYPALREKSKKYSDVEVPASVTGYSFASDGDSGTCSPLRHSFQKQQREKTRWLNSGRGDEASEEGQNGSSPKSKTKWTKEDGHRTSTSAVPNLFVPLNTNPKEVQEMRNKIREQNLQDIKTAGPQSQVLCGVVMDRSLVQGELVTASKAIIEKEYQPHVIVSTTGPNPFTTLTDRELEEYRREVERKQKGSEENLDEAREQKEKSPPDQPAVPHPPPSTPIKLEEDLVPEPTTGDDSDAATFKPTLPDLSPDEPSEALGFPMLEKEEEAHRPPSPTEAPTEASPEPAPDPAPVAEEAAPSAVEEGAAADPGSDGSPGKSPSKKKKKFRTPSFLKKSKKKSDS
UniProt O43865, whole entry, looked up: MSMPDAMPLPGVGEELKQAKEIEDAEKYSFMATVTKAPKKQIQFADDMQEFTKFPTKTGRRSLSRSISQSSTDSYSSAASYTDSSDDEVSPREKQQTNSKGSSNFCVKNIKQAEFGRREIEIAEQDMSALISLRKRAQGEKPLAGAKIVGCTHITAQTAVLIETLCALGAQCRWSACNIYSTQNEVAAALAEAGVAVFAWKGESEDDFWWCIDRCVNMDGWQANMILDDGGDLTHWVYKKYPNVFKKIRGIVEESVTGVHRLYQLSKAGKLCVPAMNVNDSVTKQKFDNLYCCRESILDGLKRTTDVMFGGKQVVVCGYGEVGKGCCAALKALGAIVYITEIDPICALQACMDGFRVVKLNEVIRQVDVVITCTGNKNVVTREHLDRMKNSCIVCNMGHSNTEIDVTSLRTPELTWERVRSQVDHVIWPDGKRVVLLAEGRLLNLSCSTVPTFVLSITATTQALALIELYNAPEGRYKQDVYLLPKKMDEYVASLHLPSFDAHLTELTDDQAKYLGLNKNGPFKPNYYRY
UniProt O43823: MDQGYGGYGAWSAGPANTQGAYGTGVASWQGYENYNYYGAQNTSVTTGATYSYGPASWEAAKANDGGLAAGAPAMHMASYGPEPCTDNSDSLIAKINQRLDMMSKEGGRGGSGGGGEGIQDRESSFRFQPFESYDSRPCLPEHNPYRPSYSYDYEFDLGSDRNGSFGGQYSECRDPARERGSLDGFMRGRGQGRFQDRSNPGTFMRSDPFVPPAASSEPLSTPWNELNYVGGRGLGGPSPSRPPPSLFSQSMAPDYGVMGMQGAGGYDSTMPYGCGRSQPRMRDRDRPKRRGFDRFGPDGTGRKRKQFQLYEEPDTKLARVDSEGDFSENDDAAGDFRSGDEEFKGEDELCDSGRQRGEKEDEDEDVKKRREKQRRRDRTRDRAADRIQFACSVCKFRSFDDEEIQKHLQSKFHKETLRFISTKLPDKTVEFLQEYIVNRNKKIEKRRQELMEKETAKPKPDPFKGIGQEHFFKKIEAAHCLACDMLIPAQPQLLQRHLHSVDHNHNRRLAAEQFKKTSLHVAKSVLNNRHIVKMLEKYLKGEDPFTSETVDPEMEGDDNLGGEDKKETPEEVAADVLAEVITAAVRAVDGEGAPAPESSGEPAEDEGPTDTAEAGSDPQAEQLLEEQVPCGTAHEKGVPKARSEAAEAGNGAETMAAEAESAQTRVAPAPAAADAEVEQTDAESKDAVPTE
UniProt P05091: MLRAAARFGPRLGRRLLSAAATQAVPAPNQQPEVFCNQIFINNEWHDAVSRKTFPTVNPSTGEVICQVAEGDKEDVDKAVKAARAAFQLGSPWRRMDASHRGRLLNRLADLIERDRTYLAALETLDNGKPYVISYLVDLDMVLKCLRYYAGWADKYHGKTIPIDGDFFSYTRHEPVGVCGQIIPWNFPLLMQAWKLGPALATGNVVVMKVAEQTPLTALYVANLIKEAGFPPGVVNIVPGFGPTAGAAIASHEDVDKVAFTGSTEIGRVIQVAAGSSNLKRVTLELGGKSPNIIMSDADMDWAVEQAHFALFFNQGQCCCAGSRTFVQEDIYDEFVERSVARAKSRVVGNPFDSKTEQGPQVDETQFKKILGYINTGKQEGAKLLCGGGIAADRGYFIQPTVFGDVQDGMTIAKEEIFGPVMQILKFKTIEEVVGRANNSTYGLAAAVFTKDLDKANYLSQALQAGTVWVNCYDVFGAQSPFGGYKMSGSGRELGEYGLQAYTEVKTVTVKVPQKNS
UniProt P35612: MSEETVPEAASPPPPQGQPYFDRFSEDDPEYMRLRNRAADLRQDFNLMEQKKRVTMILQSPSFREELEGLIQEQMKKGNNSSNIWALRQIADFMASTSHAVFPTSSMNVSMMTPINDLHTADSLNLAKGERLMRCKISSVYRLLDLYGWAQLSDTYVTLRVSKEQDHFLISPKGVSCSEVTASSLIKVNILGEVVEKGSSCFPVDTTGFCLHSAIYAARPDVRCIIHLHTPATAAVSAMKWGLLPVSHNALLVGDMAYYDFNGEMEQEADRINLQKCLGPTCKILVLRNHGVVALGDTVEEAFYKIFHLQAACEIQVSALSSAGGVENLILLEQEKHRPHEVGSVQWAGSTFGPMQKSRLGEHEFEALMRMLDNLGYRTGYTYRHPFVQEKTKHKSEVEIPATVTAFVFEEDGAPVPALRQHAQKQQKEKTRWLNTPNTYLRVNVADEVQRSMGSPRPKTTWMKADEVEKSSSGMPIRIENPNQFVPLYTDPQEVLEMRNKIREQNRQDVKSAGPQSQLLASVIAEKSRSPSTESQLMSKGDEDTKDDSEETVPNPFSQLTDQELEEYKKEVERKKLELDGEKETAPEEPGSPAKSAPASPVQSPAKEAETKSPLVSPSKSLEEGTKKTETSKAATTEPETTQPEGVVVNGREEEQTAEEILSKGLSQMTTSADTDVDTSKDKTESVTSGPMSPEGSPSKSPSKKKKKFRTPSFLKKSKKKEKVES
UniProt Q9UKV5, whole entry, looked up: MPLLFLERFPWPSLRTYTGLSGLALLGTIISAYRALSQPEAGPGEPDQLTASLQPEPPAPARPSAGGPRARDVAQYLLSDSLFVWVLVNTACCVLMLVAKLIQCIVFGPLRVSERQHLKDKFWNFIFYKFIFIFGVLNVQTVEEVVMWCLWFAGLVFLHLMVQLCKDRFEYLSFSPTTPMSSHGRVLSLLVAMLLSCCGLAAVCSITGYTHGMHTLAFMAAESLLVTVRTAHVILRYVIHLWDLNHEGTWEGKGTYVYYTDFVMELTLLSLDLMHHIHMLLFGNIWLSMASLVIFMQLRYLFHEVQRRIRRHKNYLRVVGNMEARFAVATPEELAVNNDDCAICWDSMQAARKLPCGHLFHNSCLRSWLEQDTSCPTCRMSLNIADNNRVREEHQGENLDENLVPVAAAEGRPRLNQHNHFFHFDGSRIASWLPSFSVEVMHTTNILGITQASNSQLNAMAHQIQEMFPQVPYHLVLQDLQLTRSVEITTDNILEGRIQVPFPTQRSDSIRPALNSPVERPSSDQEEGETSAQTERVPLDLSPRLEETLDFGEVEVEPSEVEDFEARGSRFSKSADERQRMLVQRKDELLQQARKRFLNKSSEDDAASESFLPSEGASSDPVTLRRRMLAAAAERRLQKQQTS
UniProt Q9NUQ2: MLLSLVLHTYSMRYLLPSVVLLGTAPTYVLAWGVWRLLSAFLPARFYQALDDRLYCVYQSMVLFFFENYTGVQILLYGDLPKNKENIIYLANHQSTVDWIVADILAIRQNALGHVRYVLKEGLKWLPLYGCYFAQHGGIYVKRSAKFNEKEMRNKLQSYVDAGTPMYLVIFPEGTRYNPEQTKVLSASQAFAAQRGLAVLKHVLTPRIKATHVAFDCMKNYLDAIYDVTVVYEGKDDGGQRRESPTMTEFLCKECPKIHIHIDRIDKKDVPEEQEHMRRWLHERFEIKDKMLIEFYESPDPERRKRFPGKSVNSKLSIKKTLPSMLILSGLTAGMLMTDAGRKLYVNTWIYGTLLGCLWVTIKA
UniProt Q9UEY8: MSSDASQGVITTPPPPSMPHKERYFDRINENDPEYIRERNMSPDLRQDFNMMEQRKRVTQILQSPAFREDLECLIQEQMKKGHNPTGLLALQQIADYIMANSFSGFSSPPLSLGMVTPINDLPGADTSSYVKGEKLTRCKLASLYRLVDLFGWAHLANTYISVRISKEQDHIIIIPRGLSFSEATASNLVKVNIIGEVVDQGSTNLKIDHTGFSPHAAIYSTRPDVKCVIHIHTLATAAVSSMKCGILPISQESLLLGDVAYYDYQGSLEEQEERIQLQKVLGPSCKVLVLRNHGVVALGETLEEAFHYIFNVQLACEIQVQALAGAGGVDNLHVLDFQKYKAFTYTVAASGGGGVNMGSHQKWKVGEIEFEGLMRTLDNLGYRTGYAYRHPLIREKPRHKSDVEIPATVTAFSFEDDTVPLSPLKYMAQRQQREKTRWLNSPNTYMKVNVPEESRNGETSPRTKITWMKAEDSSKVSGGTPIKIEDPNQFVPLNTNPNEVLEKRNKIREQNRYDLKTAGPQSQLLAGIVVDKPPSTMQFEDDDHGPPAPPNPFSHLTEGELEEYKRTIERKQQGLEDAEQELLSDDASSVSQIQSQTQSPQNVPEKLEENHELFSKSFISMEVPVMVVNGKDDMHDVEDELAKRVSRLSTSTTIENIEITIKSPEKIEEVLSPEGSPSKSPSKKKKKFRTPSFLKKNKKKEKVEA
UniProt P55263: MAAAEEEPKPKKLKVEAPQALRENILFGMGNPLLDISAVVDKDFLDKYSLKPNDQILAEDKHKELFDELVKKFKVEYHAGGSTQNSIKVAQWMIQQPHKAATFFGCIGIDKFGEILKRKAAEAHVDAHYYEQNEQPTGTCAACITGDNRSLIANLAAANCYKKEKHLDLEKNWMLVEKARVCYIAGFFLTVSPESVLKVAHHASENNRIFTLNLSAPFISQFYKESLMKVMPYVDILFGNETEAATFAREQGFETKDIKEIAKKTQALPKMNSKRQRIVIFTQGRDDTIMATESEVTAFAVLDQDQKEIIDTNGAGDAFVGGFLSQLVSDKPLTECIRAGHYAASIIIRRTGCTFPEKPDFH
UniProt Q9ULX6: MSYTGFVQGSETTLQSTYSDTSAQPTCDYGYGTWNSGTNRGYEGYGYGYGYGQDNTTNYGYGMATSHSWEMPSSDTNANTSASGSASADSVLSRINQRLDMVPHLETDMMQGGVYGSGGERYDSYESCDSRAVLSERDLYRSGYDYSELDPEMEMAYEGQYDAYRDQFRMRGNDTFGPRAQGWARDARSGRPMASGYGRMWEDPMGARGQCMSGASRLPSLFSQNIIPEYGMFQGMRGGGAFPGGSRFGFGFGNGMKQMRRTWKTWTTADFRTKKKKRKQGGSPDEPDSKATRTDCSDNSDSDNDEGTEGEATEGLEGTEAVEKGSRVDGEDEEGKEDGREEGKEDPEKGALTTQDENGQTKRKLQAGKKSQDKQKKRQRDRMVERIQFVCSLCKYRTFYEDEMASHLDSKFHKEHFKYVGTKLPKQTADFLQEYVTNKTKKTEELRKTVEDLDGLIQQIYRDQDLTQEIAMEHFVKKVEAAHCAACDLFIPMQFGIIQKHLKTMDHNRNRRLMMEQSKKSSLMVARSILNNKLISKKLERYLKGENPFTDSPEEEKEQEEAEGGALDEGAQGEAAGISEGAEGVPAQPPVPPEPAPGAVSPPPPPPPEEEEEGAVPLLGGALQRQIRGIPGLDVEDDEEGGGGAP

Key:
Test in all cases: log2 fold change, soluble protein after heating vs DMSO (PISA); higher = thermal stabilisation; K562 cells, 10 uM, 30 min; active = over 0.2 and 3.5 SD of the protein, either way, in both replicates (recomputed)
saracatinib = compound: CN1CCN(CCOc2cc(OC3CCOCC3)c3c(Nc4c(Cl)ccc5c4OCO5)ncnc3c2)CC1 [saracatinib]
Summary of the method: (§1)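 K562 cells at 2×10^6 cells/mL were treated for 30 min with 10 μM compound, and aliquots were heated for 3 min over 48°C-58°C before pooling. Extraction used PBS with 0.5% NP-40 at 4°C, and soluble protein was the supernatant after 21,000xg for 90 min, measured by TMTpro 16plex LC-MS/MS with channel sums equalised. Thermal stability values, relative to control samples and from duplicates, are log2 fold changes.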

sotrastaurin = compound: CN1CCN(c2nc(C3=C(c4c[nH]c5ccccc45)C(=O)NC3=O)c3ccccc3n2)CC1 [sotrastaurin]
Summary of the method: as §1

alvocidib = compound: CN1CC[C@H](c2c(O)cc(O)c3c(=O)cc(-c4ccccc4Cl)oc23)[C@H](O)C1 [alvocidib]
Summary of the method: as §1

Tubastatin A = compound: CN1CCc2c(c3ccccc3n2Cc2ccc(C(=O)NO)cc2)C1 [Tubastatin A]
Summary of the method: as §1

[1] = compound: CNC(=O)C1=CC=CC=C1NC2=NC(=NC=C2Cl)NC3=C(C=C(C=C3)N4CCOCC4)OC
Summary of the method: as §1

defactinib = compound: CNC(=O)c1ccc(Nc2ncc(C(F)(F)F)c(NCc3nccnc3N(C)S(C)(=O)=O)n2)cc1 [defactinib]
Summary of the method: as §1

rucaparib = compound: CNCc1ccc(-c2[nH]c3cc(F)cc4c3c2CCNC4=O)cc1 [rucaparib]
Summary of the method: as §1

[2] = compound: CNc1nc(-c2ccc3c(N)n[nH]c3c2)cc(N2C[C@@H](C(=O)NC3CCCCC3)CC[C@H]2C)n1
Summary of the method: as §1

encorafenib = compound: COC(=O)N[C@@H](C)CNc1nccc(-c2cn(C(C)C)nc2-c2cc(Cl)cc(NS(C)(=O)=O)c2F)n1 [encorafenib]
Summary of the method: as §1

[3] = compound: COC(=O)[C@H](CCSC)NC(=O)C1=C(C=C(C=C1)NC[C@H](CS)N)C2=CC=CC=C2
Summary of the method: as §1

[4] = compound: COC1=CC=C(C=C1)CN2C=CC3=C2C=C(C=C3)C(=O)NO
Summary of the method: as §1

filanesib = compound: CON(C)C(=O)N1N=C(c2cc(F)ccc2F)S[C@@]1(CCCN)c1ccccc1 [filanesib]
Summary of the method: as §1

zotarolimus = compound: CO[C@H]1C[C@@H]2CC[C@@H](C)[C@@](O)(O2)C(=O)C(=O)N2CCCC[C@H]2C(=O)O[C@H]([C@H](C)C[C@@H]2CC[C@H](n3cnnn3)[C@H](OC)C2)CC(=O)[C@H](C)/C=C(\C)[C@@H](O)[C@@H](OC)C(=O)[C@H](C)C[C@H](C)/C=C/C=C/C=C/1C [zotarolimus]
Summary of the method: as §1

idasanutlin = compound: COc1cc(C(=O)O)ccc1NC(=O)[C@@H]1N[C@@H](CC(C)(C)C)[C@](C#N)(c2ccc(Cl)cc2F)[C@H]1c1cccc(Cl)c1F [idasanutlin]
Summary of the method: as §1

alisertib = compound: COc1cc(Nc2ncc3c(n2)-c2ccc(Cl)cc2C(c2c(F)cccc2OC)=NC3)ccc1C(=O)O [alisertib]
Summary of the method: as §1

[5] = compound: COc1cc2nc(-c3cc(F)ccc3O)nc(N[C@@H]3CNC[C@H]3C(C)(C)O)c2cc1OC
Summary of the method: as §1

gefitinib = compound: COc1cc2ncnc(Nc3ccc(F)c(Cl)c3)c2cc1OCCCN1CCOCC1 [gefitinib]
Summary of the method: as §1

[6] = compound: COc1cccc2cc(-c3nc([C@H]4CC[C@H](C(=O)O)CC4)n4ncnc(N)c34)[nH]c12
Summary of the method: as §1

lapatinib = compound: CS(=O)(=O)CCNCc1ccc(-c2ccc3ncnc(Nc4ccc(OCc5cccc(F)c5)c(Cl)c4)c3c2)o1 [lapatinib]
Summary of the method: as §1

pictilisib = compound: CS(=O)(=O)N1CCN(Cc2cc3nc(-c4cccc5[nH]ncc45)nc(N4CCOCC4)c3s2)CC1 [pictilisib]
Summary of the method: as §1

Row | Target | log2 fold change (saracatinib) | log2 fold change (sotrastaurin) | log2 fold change (alvocidib) | log2 fold change (Tubastatin A) | log2 fold change [1] | log2 fold change (defactinib) | log2 fold change (rucaparib) | log2 fold change [2] | log2 fold change (encorafenib) | log2 fold change [3] | log2 fold change [4] | log2 fold change (filanesib) | log2 fold change (zotarolimus) | log2 fold change (idasanutlin) | log2 fold change (alisertib) | log2 fold change [5] | log2 fold change (gefitinib) | log2 fold change [6] | log2 fold change (lapatinib) | log2 fold change (pictilisib)
1 | AIMP1 isoform 2 (UniProt Q12904) | inactive: -0.12 | inactive: -0.13 | inactive: 0.222 | inactive: 0.07 | inactive: 0.072 | inactive: 0.21 | inactive: 0.441 | inactive: 0.141 | inactive: 0.172 | inactive: -0.041 | inactive: -0.02 | inactive: 0.289 | inactive: 0.115 | inactive: 0.203 | inactive: 0.015 | inactive: -0.065 | inactive: -0.012 | inactive: -0.137 | inactive: 0.099 | inactive: -0.152
2 | AK6 (UniProt Q9Y3D8) | inactive: -0.154 | inactive: -0.121 | – | inactive: 0.03 | inactive: 0.018 | inactive: -0.095 | inactive: 0.092 | inactive: -0.053 | inactive: 0.095 | inactive: -0.09 | inactive: 0.009 | inactive: -0.052 | inactive: 0.003 | inactive: 0.012 | inactive: -0.035 | inactive: 0.053 | inactive: 0.03 | inactive: 0.006 | inactive: -0.049 | inactive: -0.01
3 | ADD1 isoform 3 (UniProt P35611) | inactive: 0.095 | inactive: -0.031 | – | inactive: -0.002 | inactive: 0.008 | inactive: -0.039 | inactive: -0.018 | inactive: 0 | inactive: -0.024 | inactive: 0.031 | inactive: 0.071 | inactive: 0.013 | inactive: -0.025 | inactive: 0.014 | inactive: -0.059 | inactive: -0.009 | inactive: 0.007 | inactive: 0.066 | inactive: 0.015 | inactive: -0.004
4 | AHCYL1 (UniProt O43865) | inactive: 0.101 | inactive: 0.014 | – | inactive: -0.042 | inactive: 0.182 | inactive: 0.104 | inactive: 0.044 | inactive: 0.061 | inactive: -0.043 | inactive: -0.005 | inactive: 0.015 | inactive: -0.05 | inactive: -0.017 | inactive: -0.056 | inactive: -0.087 | inactive: 0.046 | inactive: 0.029 | inactive: 0.093 | inactive: 0.014 | inactive: 0.126
5 | ADPRHL2 (UniProt Q9NX46) | inactive: 0.039 | inactive: -0.001 | – | inactive: 0.031 | inactive: 0.049 | inactive: 0.015 | inactive: -0.085 | inactive: -0.026 | inactive: -0.009 | inactive: -0.116 | inactive: 0.111 | inactive: -0.08 | inactive: 0.022 | inactive: -0.06 | inactive: 0.009 | active: 0.245 | inactive: -0.028 | inactive: 0.012 | inactive: 0.03 | inactive: 0.078
6 | AKAP8 (UniProt O43823) | inactive: 0.012 | inactive: -0.021 | – | inactive: 0.002 | inactive: -0.073 | inactive: 0.01 | inactive: 0.017 | inactive: -0.126 | inactive: 0.037 | inactive: 0.008 | inactive: 0.026 | inactive: 0.035 | inactive: -0.105 | inactive: 0.052 | inactive: -0.046 | inactive: -0.002 | inactive: -0.049 | inactive: 0.067 | inactive: 0.014 | inactive: 0.101
7 | ALDH2 (UniProt P05091) | inactive: 0.007 | inactive: -0.099 | – | inactive: -0.032 | inactive: 0.078 | inactive: -0.055 | inactive: -0.099 | inactive: 0.026 | inactive: 0.013 | inactive: -0.03 | inactive: -0.011 | inactive: -0.142 | inactive: 0.055 | inactive: -0.104 | inactive: 0.015 | inactive: -0.006 | inactive: 0.028 | inactive: 0.069 | inactive: -0.02 | inactive: 0.043
8 | ADH5 (UniProt P11766) | inactive: 0.04 | inactive: 0.03 | – | inactive: -0.025 | inactive: -0.025 | inactive: -0.014 | inactive: -0.066 | inactive: -0.025 | inactive: -0.006 | inactive: 0.002 | inactive: -0.002 | inactive: -0.053 | inactive: 0.008 | inactive: -0.037 | inactive: -0.039 | inactive: 0.011 | inactive: -0.007 | inactive: 0.058 | inactive: -0.03 | inactive: 0
9 | ADD2 (UniProt P35612) | inactive: 0.049 | inactive: -0.004 | – | inactive: -0.025 | inactive: -0.033 | inactive: -0.051 | inactive: -0.012 | inactive: 0.001 | inactive: -0.025 | inactive: -0.003 | inactive: 0.047 | inactive: 0.015 | inactive: -0.011 | inactive: 0.009 | inactive: -0.081 | inactive: 0.065 | inactive: 0.003 | inactive: 0.02 | inactive: -0.026 | inactive: 0.009
10 | AMFR (UniProt Q9UKV5) | inactive: -0.06 | inactive: -0.056 | – | inactive: -0.016 | inactive: 0.088 | inactive: -0.043 | inactive: 0.011 | inactive: -0.015 | inactive: 0.033 | inactive: 0.008 | inactive: -0.048 | inactive: -0.066 | inactive: -0.017 | inactive: 0.037 | inactive: -0.012 | inactive: -0.136 | inactive: 0.071 | inactive: 0.016 | inactive: 0.003 | inactive: -0.093
11 | AGPAT5 (UniProt Q9NUQ2) | inactive: 0.016 | inactive: 0.08 | – | inactive: -0.075 | inactive: -0.021 | inactive: 0.011 | inactive: 0.012 | inactive: 0.083 | inactive: -0.011 | inactive: -0.019 | inactive: -0.043 | inactive: -0.153 | inactive: 0 | inactive: -0.044 | inactive: 0.113 | inactive: -0.111 | inactive: 0.018 | inactive: 0.071 | inactive: 0.119 | inactive: 0.062
12 | ADD3 (UniProt Q9UEY8) | inactive: 0.032 | inactive: -0.087 | – | inactive: -0.02 | inactive: -0.005 | inactive: -0.018 | inactive: -0.013 | inactive: -0.039 | inactive: -0.003 | inactive: 0.045 | inactive: 0.018 | inactive: 0.059 | inactive: -0.074 | inactive: 0.02 | inactive: -0.063 | inactive: 0.057 | inactive: 0.021 | inactive: 0.063 | inactive: -0.006 | inactive: 0.075
13 | ADK (UniProt P55263) | inactive: 0.158 | inactive: 0.26 | – | inactive: -0.007 | inactive: 0.119 | inactive: 0.055 | inactive: -0.021 | inactive: -0.017 | inactive: -0.044 | inactive: 0.002 | inactive: -0.009 | inactive: -0.013 | inactive: -0.014 | inactive: -0.083 | inactive: -0.037 | inactive: 0.015 | inactive: 0.199 | inactive: 0.007 | inactive: 0.21 | inactive: 0.167
14 | ALKBH8 isoform 4 (UniProt Q96BT7) | inactive: -0.247 | inactive: 0.031 | inactive: -0.077 | – | – | – | inactive: 0.244 | inactive: 0.079 | inactive: 0.069 | – | inactive: -0.035 | inactive: 0.053 | inactive: -0.11 | – | inactive: 0.049 | – | – | inactive: 0.046 | – | inactive: 0.124
15 | AGPAT3 isoform 3 (UniProt Q9NRZ7) | inactive: 0.01 | inactive: -0.084 | – | inactive: 0.019 | inactive: 0.012 | inactive: -0.037 | inactive: -0.036 | inactive: -0.045 | inactive: -0.001 | inactive: 0.008 | inactive: -0.083 | inactive: -0.106 | inactive: 0.048 | inactive: -0.149 | inactive: 0.012 | inactive: 0.083 | inactive: 0.012 | inactive: 0.005 | inactive: 0.004 | inactive: -0.013
16 | AKAP8L (UniProt Q9ULX6) | inactive: -0.127 | inactive: -0.203 | – | inactive: 0.055 | inactive: -0.097 | active: -0.477 | inactive: -0.008 | inactive: 0.027 | inactive: 0.025 | inactive: 0.049 | inactive: 0.032 | inactive: 0.064 | inactive: 0.097 | inactive: 0.205 | inactive: 0.041 | inactive: -0.212 | inactive: 0.008 | inactive: 0.001 | inactive: 0.034 | inactive: 0.019

Looked up one by one from the list above (2):
Row | Target | log2 fold change (saracatinib) | log2 fold change (sotrastaurin) | log2 fold change (alvocidib) | log2 fold change (Tubastatin A) | log2 fold change [1] | log2 fold change (defactinib) | log2 fold change (rucaparib) | log2 fold change [2] | log2 fold change (encorafenib) | log2 fold change [3] | log2 fold change [4] | log2 fold change (filanesib) | log2 fold change (zotarolimus) | log2 fold change (idasanutlin) | log2 fold change (alisertib) | log2 fold change [5] | log2 fold change (gefitinib) | log2 fold change [6] | log2 fold change (lapatinib) | log2 fold change (pictilisib)
12 | ADD3 (UniProt Q9UEY8) | inactive: 0.032 | inactive: -0.087 | – | inactive: -0.02 | inactive: -0.005 | inactive: -0.018 | inactive: -0.013 | inactive: -0.039 | inactive: -0.003 | inactive: 0.045 | inactive: 0.018 | inactive: 0.059 | inactive: -0.074 | inactive: 0.02 | inactive: -0.063 | inactive: 0.057 | inactive: 0.021 | inactive: 0.063 | inactive: -0.006 | inactive: 0.075
14 | ALKBH8 isoform 4 (UniProt Q96BT7) | inactive: -0.247 | inactive: 0.031 | inactive: -0.077 | – | – | – | inactive: 0.244 | inactive: 0.079 | inactive: 0.069 | – | inactive: -0.035 | inactive: 0.053 | inactive: -0.11 | – | inactive: 0.049 | – | – | inactive: 0.046 | – | inactive: 0.124
